Laboratory results as given in the supplement of paper PMC7666118.
This is one part of the list.

Chains of the proteins cited; added tags and fusions are not shown. Lines headed by an entry give the natural chain unless they say otherwise; changes in a name come on top.
UniProt Q9Y6A9: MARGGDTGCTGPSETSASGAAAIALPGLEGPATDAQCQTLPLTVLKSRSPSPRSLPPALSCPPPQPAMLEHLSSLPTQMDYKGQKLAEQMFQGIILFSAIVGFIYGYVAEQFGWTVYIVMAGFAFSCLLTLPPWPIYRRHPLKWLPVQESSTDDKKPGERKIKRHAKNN
UniProt P56962: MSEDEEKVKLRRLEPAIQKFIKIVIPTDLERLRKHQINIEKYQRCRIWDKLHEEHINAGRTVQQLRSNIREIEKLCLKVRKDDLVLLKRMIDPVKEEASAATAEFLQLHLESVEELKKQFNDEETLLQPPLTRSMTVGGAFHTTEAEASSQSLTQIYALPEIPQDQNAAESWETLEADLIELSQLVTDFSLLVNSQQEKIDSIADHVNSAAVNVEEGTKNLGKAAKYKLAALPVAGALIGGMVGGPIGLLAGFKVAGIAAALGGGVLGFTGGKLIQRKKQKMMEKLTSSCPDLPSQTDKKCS
UniProt Q9H2K8: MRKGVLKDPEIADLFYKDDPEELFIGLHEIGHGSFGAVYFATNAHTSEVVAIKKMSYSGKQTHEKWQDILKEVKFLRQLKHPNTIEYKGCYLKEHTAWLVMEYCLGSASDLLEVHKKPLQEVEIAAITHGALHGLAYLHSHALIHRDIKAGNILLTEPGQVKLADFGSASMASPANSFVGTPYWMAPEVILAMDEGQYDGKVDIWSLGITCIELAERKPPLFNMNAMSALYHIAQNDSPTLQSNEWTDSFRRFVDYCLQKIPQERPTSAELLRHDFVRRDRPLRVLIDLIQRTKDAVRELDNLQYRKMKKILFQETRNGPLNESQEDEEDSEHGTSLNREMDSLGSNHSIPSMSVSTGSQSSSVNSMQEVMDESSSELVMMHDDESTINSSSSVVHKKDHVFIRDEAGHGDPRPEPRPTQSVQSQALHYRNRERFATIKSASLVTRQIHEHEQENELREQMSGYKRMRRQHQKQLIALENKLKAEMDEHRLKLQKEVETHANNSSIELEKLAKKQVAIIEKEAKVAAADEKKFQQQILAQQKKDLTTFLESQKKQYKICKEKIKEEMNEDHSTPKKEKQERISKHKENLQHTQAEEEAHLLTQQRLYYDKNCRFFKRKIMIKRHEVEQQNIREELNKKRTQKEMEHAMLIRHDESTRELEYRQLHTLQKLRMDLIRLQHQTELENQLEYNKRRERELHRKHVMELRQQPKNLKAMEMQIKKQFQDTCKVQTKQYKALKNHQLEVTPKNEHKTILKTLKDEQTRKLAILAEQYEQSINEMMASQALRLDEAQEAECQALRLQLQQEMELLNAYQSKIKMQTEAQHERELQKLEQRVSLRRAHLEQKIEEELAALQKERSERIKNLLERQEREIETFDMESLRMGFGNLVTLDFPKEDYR
UniProt Q8IXH7, whole entry: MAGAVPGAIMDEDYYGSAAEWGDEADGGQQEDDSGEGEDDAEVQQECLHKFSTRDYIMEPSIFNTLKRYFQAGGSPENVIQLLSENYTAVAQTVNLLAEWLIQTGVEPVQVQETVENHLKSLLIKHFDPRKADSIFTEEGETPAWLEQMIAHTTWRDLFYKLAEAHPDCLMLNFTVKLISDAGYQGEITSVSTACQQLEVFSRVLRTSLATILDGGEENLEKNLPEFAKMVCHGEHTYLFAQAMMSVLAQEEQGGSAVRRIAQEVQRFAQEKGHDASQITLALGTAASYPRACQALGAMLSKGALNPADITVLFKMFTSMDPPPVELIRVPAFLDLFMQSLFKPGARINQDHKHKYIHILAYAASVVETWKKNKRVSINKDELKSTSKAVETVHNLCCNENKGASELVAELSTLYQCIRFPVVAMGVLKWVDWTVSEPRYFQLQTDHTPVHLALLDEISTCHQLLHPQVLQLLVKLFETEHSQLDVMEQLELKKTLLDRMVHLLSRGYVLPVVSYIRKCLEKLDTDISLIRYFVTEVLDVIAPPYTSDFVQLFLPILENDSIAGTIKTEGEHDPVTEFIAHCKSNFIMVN
UniProt P31948, whole entry, looked up: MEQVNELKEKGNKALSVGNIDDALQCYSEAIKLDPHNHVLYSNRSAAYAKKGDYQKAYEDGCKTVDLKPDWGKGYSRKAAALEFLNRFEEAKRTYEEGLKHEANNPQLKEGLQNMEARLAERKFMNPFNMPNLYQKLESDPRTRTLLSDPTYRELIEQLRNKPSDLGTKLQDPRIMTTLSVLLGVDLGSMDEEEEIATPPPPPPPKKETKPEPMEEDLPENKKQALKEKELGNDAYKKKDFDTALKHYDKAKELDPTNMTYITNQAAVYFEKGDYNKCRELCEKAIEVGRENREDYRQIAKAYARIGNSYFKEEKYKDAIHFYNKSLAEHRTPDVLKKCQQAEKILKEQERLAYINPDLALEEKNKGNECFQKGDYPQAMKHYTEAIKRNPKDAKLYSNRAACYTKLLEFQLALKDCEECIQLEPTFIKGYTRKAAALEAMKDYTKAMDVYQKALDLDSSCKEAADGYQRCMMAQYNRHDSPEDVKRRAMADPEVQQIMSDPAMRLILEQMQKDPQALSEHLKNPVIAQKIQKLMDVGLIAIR
UniProt Q96SI9: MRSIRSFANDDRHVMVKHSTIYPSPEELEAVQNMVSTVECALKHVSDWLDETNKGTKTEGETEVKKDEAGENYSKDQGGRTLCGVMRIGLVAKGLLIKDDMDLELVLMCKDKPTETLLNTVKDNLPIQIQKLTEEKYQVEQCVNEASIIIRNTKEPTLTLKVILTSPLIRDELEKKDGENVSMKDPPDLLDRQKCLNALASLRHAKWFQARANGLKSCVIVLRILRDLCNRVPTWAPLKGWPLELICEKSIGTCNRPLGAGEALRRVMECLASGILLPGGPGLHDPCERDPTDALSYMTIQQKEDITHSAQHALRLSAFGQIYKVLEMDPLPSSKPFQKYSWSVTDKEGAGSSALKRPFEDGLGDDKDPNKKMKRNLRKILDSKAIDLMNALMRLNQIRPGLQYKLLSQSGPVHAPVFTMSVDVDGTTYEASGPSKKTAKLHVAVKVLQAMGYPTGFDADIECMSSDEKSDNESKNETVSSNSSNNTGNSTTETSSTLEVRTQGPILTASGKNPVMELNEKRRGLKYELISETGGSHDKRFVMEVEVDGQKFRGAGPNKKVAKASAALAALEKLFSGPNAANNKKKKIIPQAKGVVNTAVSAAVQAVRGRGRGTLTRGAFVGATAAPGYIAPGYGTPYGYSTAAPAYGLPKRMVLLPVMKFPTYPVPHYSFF
UniProt P37108: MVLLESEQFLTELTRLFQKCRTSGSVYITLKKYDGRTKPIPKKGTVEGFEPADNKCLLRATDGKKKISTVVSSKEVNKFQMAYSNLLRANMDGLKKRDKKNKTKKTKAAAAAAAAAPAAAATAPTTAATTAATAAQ
UniProt P09132: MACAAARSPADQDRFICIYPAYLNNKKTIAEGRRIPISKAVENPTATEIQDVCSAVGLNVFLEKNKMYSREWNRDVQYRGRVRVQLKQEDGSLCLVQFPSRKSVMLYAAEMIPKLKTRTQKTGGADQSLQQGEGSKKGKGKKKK
UniProt Q9UJZ1: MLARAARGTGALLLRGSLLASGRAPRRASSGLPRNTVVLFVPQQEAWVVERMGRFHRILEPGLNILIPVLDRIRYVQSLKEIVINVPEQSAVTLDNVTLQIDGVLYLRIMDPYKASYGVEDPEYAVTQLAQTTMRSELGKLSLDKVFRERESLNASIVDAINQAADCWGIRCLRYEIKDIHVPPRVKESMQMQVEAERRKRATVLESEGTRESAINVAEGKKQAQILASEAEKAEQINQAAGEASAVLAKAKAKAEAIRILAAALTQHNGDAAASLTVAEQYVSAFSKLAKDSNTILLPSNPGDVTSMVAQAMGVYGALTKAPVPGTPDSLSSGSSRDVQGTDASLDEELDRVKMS
UniProt Q5T1C6: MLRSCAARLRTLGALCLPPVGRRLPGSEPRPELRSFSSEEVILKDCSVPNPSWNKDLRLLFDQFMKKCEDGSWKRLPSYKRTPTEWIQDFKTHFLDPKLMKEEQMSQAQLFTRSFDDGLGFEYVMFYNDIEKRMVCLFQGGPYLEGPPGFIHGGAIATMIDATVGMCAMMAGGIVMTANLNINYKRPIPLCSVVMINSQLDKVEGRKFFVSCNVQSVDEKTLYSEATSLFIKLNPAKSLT
UniProt Q9HB58: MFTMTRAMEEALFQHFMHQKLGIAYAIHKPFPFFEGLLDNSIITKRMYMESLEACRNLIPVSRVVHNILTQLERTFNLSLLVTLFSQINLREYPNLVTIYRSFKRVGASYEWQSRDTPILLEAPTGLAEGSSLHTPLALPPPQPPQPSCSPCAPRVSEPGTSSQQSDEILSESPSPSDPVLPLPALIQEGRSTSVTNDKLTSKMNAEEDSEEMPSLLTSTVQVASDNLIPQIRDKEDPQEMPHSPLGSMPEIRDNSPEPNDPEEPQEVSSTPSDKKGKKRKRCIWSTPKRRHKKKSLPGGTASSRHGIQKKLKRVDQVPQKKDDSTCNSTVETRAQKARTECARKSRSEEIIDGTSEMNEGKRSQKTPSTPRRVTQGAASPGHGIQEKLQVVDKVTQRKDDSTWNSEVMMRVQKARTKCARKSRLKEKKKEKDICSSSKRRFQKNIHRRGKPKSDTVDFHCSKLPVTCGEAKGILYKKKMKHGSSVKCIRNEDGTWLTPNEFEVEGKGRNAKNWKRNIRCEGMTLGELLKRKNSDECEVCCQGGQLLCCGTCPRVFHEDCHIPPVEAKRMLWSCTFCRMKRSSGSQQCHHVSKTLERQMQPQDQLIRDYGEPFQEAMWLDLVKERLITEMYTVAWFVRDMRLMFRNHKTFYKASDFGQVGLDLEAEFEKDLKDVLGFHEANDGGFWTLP
UniProt Q6ZMD2: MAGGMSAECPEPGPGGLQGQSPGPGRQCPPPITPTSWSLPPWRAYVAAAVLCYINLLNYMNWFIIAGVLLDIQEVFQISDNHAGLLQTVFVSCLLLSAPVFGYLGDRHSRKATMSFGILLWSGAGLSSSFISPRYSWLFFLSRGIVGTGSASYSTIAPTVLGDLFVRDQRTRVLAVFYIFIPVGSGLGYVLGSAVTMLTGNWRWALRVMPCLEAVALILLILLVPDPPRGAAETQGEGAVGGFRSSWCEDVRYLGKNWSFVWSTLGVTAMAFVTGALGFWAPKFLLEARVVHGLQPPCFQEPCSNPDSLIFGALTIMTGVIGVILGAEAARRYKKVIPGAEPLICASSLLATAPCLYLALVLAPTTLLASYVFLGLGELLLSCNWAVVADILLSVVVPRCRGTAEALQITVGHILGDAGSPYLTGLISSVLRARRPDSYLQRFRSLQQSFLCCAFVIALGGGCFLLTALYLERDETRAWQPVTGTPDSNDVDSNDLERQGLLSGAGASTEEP
UniProt Q14849, whole entry: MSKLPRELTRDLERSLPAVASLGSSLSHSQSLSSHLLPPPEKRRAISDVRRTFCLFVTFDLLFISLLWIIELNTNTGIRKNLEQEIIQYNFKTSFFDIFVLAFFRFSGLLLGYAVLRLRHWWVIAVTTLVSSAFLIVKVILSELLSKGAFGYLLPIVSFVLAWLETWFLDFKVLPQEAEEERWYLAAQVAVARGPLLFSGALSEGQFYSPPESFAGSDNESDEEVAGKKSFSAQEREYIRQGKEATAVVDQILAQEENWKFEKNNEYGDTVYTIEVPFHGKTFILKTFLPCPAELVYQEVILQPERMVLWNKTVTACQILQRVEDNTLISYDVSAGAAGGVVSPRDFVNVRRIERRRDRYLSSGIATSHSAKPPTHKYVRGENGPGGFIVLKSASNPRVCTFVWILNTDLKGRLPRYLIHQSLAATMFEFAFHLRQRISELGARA
UniProt Q15526: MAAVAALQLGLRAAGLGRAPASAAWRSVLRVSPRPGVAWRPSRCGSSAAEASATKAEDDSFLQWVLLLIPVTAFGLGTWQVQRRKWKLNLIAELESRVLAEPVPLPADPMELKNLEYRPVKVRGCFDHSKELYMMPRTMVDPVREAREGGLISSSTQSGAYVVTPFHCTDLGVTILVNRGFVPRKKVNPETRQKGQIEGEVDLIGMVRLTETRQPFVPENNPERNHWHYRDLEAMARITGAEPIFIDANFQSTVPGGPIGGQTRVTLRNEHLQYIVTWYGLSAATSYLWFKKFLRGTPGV
UniProt Q9ULP9: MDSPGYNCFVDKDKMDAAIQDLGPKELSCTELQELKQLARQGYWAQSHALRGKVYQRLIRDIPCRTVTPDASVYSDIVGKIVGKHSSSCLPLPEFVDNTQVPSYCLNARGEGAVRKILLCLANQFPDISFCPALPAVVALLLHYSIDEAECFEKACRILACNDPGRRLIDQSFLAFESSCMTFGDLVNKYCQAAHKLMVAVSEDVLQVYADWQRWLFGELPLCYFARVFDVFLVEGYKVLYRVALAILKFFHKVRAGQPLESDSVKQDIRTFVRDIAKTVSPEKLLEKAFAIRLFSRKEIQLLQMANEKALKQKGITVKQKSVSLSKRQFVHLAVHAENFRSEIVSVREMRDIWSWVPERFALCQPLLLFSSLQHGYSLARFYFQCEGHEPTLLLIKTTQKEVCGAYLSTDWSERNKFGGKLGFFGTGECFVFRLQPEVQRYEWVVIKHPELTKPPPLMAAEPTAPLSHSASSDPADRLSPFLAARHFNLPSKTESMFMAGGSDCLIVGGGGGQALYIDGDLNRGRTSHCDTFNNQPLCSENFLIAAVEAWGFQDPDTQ

The targets below were run with COc1ccc(Cn2ccc3cc(C)c(C(=O)NO)cc32)cc1 (assay: dose-dependent thermal stabilisation call (2D-TPP, DLPTP, 10% FDR) (binary (1 = stabilised)); higher = stabilised by the compound). Settings: system: HL-60 intact cells; concentration range 0.04-10 µM.
Method: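 2D thermal proteome profiling in intact HL-60 cells treated with BRD-3811 (0, 0.04, 0.29, 2, 10 uM) for 90 min at 37 C, then heated 3 min at one of 12 temperatures (42-63.9 C). Soluble protein was quantified by TMT10 MS. The value is the DLPTP call of the paper: dose-dependent thermal stabilisation over all temperatures at 10% FDR (F-test of a dose-response against a flat model); one experiment, one call per tested protein.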
With STRA13 the “dose-dependent thermal stabilisation call” value was inactive: 0. STT3B (UniProt Q8TCJ2) was tested, and the “dose-dependent thermal stabilisation call” value was inactive: 0. With SPCS1 (UniProt Q9Y6A9) the “dose-dependent thermal stabilisation call” value was inactive: 0. In the case of TFIP11 (UniProt Q9UBB9), the “dose-dependent thermal stabilisation call” value is reported as inactive: 0. For STX17 (UniProt P56962), the “dose-dependent thermal stabilisation call” value was inactive: 0. TAOK3 (UniProt Q9H2K8) was tested, and the “dose-dependent thermal stabilisation call” value was inactive: 0. In the case of TH1L (UniProt Q8IXH7), the “dose-dependent thermal stabilisation call” value is reported as inactive: 0. For TBC1D25 (UniProt Q3MII6), the “dose-dependent thermal stabilisation call” value was inactive: 0. With SYNJ1 (UniProt O43426) the “dose-dependent thermal stabilisation call” value was inactive: 0. For STIP1 (UniProt P31948), the “dose-dependent thermal stabilisation call” value was inactive: 0. STRN3 (UniProt Q13033) was tested, and the “dose-dependent thermal stabilisation call” value was inactive: 0. In the case of STRBP (UniProt Q96SI9), the “dose-dependent thermal stabilisation call” value is reported as inactive: 0. In the case of SPTAN1 (UniProt Q13813), the “dose-dependent thermal stabilisation call” value is reported as inactive: 0. For SPG11 (UniProt Q96JI7), the “dose-dependent thermal stabilisation call” value was inactive: 0. For SRP14 (UniProt P37108), the “dose-dependent thermal stabilisation call” value was inactive: 0. SOD2 (UniProt P04179) was tested, and the “dose-dependent thermal stabilisation call” value was inactive: 0. For TGM3 (UniProt Q08188), the “dose-dependent thermal stabilisation call” value was inactive: 0. For STX3 (UniProt Q13277), the “dose-dependent thermal stabilisation call” value was inactive: 0. SRP19 (UniProt P09132) was tested, and the “dose-dependent thermal stabilisation call” value was inactive: 0. In the case of STX12 (UniProt Q86Y82), the “dose-dependent thermal stabilisation call” value is reported as inactive: 0. For STAM2 (UniProt O75886), the “dose-dependent thermal stabilisation call” value was inactive: 0. STOML2 (UniProt Q9UJZ1) was tested, and the “dose-dependent thermal stabilisation call” value was inactive: 0. THEM4 (UniProt Q5T1C6) was tested, and the “dose-dependent thermal stabilisation call” value was active: 1. In the case of STAG2 (UniProt Q8N3U4), the “dose-dependent thermal stabilisation call” value is reported as inactive: 0. In the case of TBC1D15 (UniProt Q8TC07), the “dose-dependent thermal stabilisation call” value is reported as inactive: 0. For SP110 (UniProt Q9HB58), the “dose-dependent thermal stabilisation call” value was inactive: 0. In the case of SRPRB (UniProt Q9Y5M8), the “dose-dependent thermal stabilisation call” value is reported as inactive: 0. In the case of SPNS3 (UniProt Q6ZMD2), the “dose-dependent thermal stabilisation call” value is reported as inactive: 0. With SUZ12 (UniProt Q15022) the “dose-dependent thermal stabilisation call” value was inactive: 0. With TAGLN2 (UniProt P37802) the “dose-dependent thermal stabilisation call” value was inactive: 0. In the case of SORL1 (UniProt Q92673), the “dose-dependent thermal stabilisation call” value is reported as inactive: 0. STARD3 (UniProt Q14849) was tested, and the “dose-dependent thermal stabilisation call” value was inactive: 0. With SURF1 (UniProt Q15526) the “dose-dependent thermal stabilisation call” value was inactive: 0. TBC1D24 (UniProt Q9ULP9) was tested, and the “dose-dependent thermal stabilisation call” value was inactive: 0. TANC2 (UniProt Q9HCD6) was tested, and the “dose-dependent thermal stabilisation call” value was inactive: 0. In the case of SPAG7 (UniProt O75391), the “dose-dependent thermal stabilisation call” value is reported as inactive: 0.
